The whole screen tested about 330,000 compounds, of which about 4,200 (1.3%) were called active. Not shown: some 6% with an inconclusive outcome. Calls follow the shape of the dose curve; as a rule, active = well fitted activation curve with a large enough effect; inconclusive = small, poorly fitted or top-dose-only effect; inactive = no such curve, though single readings can be large or run the other way. This is a selection; strong and weak results do not stand in their true shares. Where no call is shown, the source filed none.
Potency is read from the fitted curve at half-maximal effect.

This assay can be described thus: qHTS screen for small molecules that induce genotoxicity in human embryonic kidney (HEK293T) cells expressing luciferase-tagged ELG1. Also: nearly all actives have a fitted effect of over 60% in size. As to activity change, positive = activation: % of control where 0% means no effect. Conditions: HEK293T ELG1-luciferase reporter, luminescence, 16 h; activity change, positive = activation: at 46 µM (top of the series). From the text: NIH Molecular Libraries Probe Production Network [MLPCN] NIH Chemical Genomics Center [NCGC] MLPCN Grant: 1 R03 MH092164-01 Assay Provider: Kyungjae Myung, NHGRI, NIH Keywords: MLPCN, qHTS, NCGC, genotoxicity, cancer Assay Overview: Cancer cells divide rapidly compared to normal cells in the body. During cell division, cancer cells need to duplicate their genome by DNA replication. The failure of genome duplication leads to cancer cells' death. Therefore, inhibitors of DNA replication could specifically kill cancer cells. Based on this concept, many chemotherapeutic agents were developed and have been used to treat cancer patients. However, there are a limited number of agents available in the clinical setting, and some of those that do exist have low efficacy and severe side effects. Therefore, if we can find the compounds that effectively block DNA replication either by directly damaging DNA or by inhibiting other cellular mechanisms, the options for cancer treatment will be broadened. With this in mind, we developed a quantitative high-throughput ELG1-luciferase reporter gene assay. Since the level of human ELG1 protein is enhanced in response to genetic stresses, increases in luciferase activity can be used to identify compounds that cause genetic stress.
Assay Protocol Summary: For genotoxicity screening, 2,000 cells in 5 uL/well were dispensed into white, solid-bottom 1536-well plates using a solenoid-based dispenser. Following transfer of 23 nL compound or DMSO vehicle by a pin tool, the plates were incubated 16 hr at 37 °C and 5% CO2. 5 ul ONE-Glo (Promega) was then added to each plate and following a 30 min incubation at room temperature, luciferase activity was quantified on a ViewLux CCD-based plate reader.
(In general: qHTS replaces the single test concentration by a dilution series.)
For `CC(C)CCOP(N)(=O)Oc1ccccc1Cl` (centres undefined), the activity change, positive = activation turned out to be 13.4%. For the molecule `C#C[C@]1(O)CC[C@H]2[C@@H]3CCC4=Cc5nc6nc7ccccc7n6cc5C[C@]4(C)[C@H]3CC[C@@]21C`, the “activity change, positive = activation” value was inactive: -23.5%. Take `CCOC(=O)c1sc(=NC(=O)c2ccc(C)c(C)c2)n(C)c1C`: the Potency is active: 11.6 µM. Turning to `COC(=O)[C@H]1C[C@@H]1[C@H](NP(=O)(c1ccccc1)c1ccccc1)c1ccccc1`, the “activity change, positive = activation” value was inactive: -0.359%.

(Values after PubChem BioAssay AID504466 (National Center for Advancing Translational Sciences (NCATS), 2011).)
